Patent publication US10913933B2, “Bioengineered liver constructs and methods relating thereto” (Wake Forest University Health Sciences, priority 2013, dated 2021)

System: bioengineered liver organoids
Experiment: Drug metabolic activity of bioengineered liver organoid discs (mass spectrometry of media)
Settings: induced with phenobarbital and 3-MC
Description: For hepatocyte functional analysis, culture medium was collected after the three week incubation. The media was stored at −80° C. until it was used for analysis. For analyzing albumin synthesis, albumin ELISA assay (Bethyl Laboratories Inc.) was carried out on each samples in triplicates. The albumin concentrations were normalized per mg of DNA. The media was also analyzed in the same fashion for urea secretion using a Quantichrome™ Urea Assay Kit (BioAssay Systems, Inc.). […] After 48 hours, media samples were collected and analyzed by mass spectrometry (FIGS. 3C and 3D), and compared with standards of individual metabolites (FIGS. 3A and 3B).
In a second experiment, the liver organoids were prepared as described above in Example 1, Section A using LPC seeding and maintenance media. Alternatively, the organoids can be prepared using minimal LPC medium or hFLP medium instead. After seeding with hFLPCs, the discs were cultured for 3 weeks, with harvesting of cells at 1 week and 3 weeks for immunohistochemical and molecular analysis. Assays assessing albumin and urea synthesis and IHC analyses were performed as described above. Gene expression analyses were performed by RT-PCR after harvesting the organoids. Drug metabolism activity in the organoids was assessed after 1 week and 3 weeks of culturing. […] After 3, 6, 12, and 24 hours, media samples were collected and analyzed by mass spectrometry.

CN1C(=O)CN=C(c2ccccc2)c2cc(Cl)ccc21 [diazepam]
Phase-1 metabolites found in media (first experiment, organoids cultured 3 weeks, media collected after 48 hours): Temazepam, Nordiazepam
Phase I metabolites formed by liver organoids (second experiment, organoids after 1 week and 3 weeks of culturing, media after 3, 6, 12 and 24 hours): temazepam and nordiazepam
